Test results published in paper PMC2912378 (PLoS ONE, 2010).
No constants are given. Whether binding was seen depends on the method and setting. In cells and extracts the contact can be indirect. Some binding calls cover weakened binding; strength is not graded here. For some of these results: Tags and fused reporters may be left off the sequences shown.

Protein sequences, listed by entry. Tags and fused reporters are not part of them.
UniProt Q04207: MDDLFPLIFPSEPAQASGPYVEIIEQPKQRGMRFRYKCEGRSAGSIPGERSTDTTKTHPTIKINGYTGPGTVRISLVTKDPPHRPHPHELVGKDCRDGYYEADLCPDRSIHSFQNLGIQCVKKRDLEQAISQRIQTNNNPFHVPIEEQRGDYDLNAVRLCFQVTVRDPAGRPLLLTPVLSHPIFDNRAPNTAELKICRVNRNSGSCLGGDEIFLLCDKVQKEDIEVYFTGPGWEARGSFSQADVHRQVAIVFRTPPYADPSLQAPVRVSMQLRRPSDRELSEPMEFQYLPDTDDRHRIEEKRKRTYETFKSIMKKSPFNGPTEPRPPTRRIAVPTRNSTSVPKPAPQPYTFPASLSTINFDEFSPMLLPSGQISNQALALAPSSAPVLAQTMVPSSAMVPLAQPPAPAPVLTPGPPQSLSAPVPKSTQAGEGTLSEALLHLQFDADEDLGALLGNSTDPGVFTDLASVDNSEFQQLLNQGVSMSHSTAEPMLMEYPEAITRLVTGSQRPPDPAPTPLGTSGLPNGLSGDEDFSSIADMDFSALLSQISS

T1: Myc-tagged mouse RelB, full length (WT) (mouse) (UniProt Q04863)
T1 sequence: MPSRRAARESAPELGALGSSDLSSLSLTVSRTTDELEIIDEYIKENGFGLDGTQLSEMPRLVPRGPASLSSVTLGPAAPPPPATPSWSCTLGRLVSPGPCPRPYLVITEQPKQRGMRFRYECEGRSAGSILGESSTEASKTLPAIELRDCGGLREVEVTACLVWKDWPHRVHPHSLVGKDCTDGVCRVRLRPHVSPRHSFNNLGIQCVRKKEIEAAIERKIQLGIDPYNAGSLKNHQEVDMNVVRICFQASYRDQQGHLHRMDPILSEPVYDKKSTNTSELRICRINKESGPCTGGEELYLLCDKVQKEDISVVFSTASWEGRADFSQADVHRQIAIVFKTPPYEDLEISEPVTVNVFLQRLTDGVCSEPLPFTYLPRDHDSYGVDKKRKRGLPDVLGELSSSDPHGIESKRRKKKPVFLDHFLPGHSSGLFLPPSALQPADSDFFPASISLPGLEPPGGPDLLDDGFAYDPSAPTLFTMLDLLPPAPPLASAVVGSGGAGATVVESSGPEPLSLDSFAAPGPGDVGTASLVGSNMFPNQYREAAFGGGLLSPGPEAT


Key:
[1] = biological target: T1, Myc-tagged mouse RelB, full length (WT) (mouse); test: co-IP
[2] = biological target: Myc-tagged RelB Δ52–402 (mouse) (UniProt Q04863); test: co-IP
[3] = biological target: RelB with deletion of the proximal nuclear localization signal (residues 388–392) (mouse) (UniProt Q04863); test: co-IP
[4] = biological target: RelA (p65) (endogenous, BV-2 microglial cells) (mouse (endogenous in BV-2)) (UniProt Q04207); test: co-IP; whole cell lysates of BV-2 cells, untreated or treated with Tat (100nM) for 4h or 8h; immunoprecipitation with a RelA-specific antibody and Protein A/G+ agarose beads, 4°C, washed with ELB lysis buffer; immunoblot with RelB-specific antibody; densitometry normalised to precipitated RelA

Row | Molecule | binding [1] | binding [2] | binding [3] | binding [4]
1 | influenza hemagglutinin (HA)-tagged derivative of RelA (from UniProt Q04207 1-549) | binds | no binding | binds | –
2 | RelB (endogenous, BV-2 microglial cells) (natural protein, mouse (endogenous in BV-2), UniProt Q04863 1-558, looked up, NF-kappa B family member RelB, endogenous in the murine microglial cell line BV-2; source: endogenous, BV-2 whole cell lysate) MPSRRAARESAPELGALGSSDLSSLSLTVSRTTDELEIIDEYIKENGFGLDGTQLSEMPRLVPRGPASLSSVTLGPAAPPPPATPSWSCTLGRLVSPGPCPRPYLVITEQPKQRGMRFRYECEGRSAGSILGESSTEASKTLPAIELRDCGGLREVEVTACLVWKDWPHRVHPHSLVGKDCTDGVCRVRLRPHVSPRHSFNNLGIQCVRKKEIEAAIERKIQLGIDPYNAGSLKNHQEVDMNVVRICFQASYRDQQGHLHRMDPILSEPVYDKKSTNTSELRICRINKESGPCTGGEELYLLCDKVQKEDISVVFSTASWEGRADFSQADVHRQIAIVFKTPPYEDLEISEPVTVNVFLQRLTDGVCSEPLPFTYLPRDHDSYGVDKKRKRGLPDVLGELSSSDPHGIESKRRKKKPVFLDHFLPGHSSGLFLPPSALQPADSDFFPASISLPGLEPPGGPDLLDDGFAYDPSAPTLFTMLDLLPPAPPLASAVVGSGGAGATVVESSGPEPLSLDSFAAPGPGDVGTASLVGSNMFPNQYREAAFGGGLLSPGPEAT | – | – | – | binds
